No constants are given. Whether binding was seen depends on the method and setting. Binding seen in cells or lysates may run through a third protein. A yes stands for co-enrichment or nearness to the bait. Other partners may have been found.
Molecular target: endogenous NEDD8 (HK-2 cells) (human (endogenous in HK-2)) (UniProt Q15843)
Assay: affinity purification with mass spectrometry; immunoprecipitation with NEDD8 from HK-2 cell lysate (HG-stimulated per the discussion), LC-MS/MS of the precipitate

The chains behind the UniProt entries cited, without tags or fusion partners. Residues count along the entry.
UniProt Q15843, residues 1-76: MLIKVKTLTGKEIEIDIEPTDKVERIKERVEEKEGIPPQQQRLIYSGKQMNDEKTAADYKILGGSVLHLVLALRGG
UniProt P61586: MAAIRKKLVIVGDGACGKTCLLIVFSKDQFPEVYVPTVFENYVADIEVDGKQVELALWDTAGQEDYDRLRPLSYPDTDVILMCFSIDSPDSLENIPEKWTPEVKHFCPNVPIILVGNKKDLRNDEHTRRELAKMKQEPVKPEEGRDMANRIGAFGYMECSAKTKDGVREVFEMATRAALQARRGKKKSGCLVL

- binding: binds
Substance: endogenous RhoA (HK-2 cells) (from UniProt P61586 1-193)

Source: publication PMC12098688
